This test deals with MFAP-1 (C. elegans microfibrillar-associated protein 1) (C. elegans) (UniProt Q93712). The experiment in a line: two-hybrid; screen: bait full-length MFAP-1 in pGBK T7, preys from a pACT2.2 C. elegans library, S. cerevisiae PJ69-4A, growth on SD-Leu-Trp-His with 5 mM 3-AT; clones isolated, retested, and no survival with the pGBK T7 empty vector.

These are yes or no findings as the source states them, for the method shown. Some results given as binding are weak or reduced against the parent protein; the word gives no strength.

B1: MFAP-1 (C. elegans microfibrillar-associated protein 1) (protein, UniProt Q93712 1-466)
chain: MGDYVPGFEQRESDNRSFGHSRLPTLGAIPIKNEKGQTVMQKVKVSRYVAGKAPEYARNYDSDSSESDRETDRDDDRRRRRRRESSDEEDRRRHRRHEDYGRRRQVEKPEVLGKVEDESSENEQESEEDEEKQEERRERARMRRLELHENNREKDEEQEDSAESDEEDFERRRQMLRDRAIKREEEIKREIKEELEEDDVEEEEEEESSEEEDSDEDDDPVPRLKPIFTRKKDRITLQEAEKEKEKEILKKIEDEKRAEERKRESAKLVEKVLQEEEAAEKRKTEDRVDLSSVLTDDETENMAYEAWKLREMKRLKRNRDEREEAAREKAELDKIHAMSEEERLKYLRLNPKVITNKQDKGKYKFLQKYFHRGAFFLDEEDEVLKRNFAEATNDDQFDKTILPKVMQVKNFGKASRTKYTHLTEEDTTDHQGVWASTNQLNSQFSTKRAGGSRPVFERPATKKRKN
Turning to B1, the binding entry is “binds”.

Values taken from paper PMC3400559.
